These are yes or no findings as the source states them, for the method shown. In cells and extracts the contact can be indirect. These calls come from enrichment with a bait or labelling near it, and not all partners need be listed. A no says only that the protein was not detected with the bait. Tags and fused reporters may be left off the sequences shown.
Target: T1, Flag-SMN (Drosophila, wild-type transgene) (Drosophila) (UniProt Q9VV74)
T1 sequence: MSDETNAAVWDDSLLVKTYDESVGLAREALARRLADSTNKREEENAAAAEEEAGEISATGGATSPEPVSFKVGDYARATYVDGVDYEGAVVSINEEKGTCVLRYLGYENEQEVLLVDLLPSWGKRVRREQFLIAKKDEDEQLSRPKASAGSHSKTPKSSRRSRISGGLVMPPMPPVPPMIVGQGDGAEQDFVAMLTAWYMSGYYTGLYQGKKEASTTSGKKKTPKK
Assay: affinity purification with mass spectrometry; Flag-SMN pulldowns from embryonic lysates expressing Flag-SMN as the sole source of SMN protein

binding: no binding
Substance: Drosophila Traf6 (endogenous)
